This passage reports binding results from paper PMC10914600, “Synthesis of lipid-linked precursors of the bacterial cell wall is governed by a feedback control mechanism in Pseudomonas aeruginosa” (Nature Microbiology, 2024).

Amino acid sequences for entries named in this document (tags omitted). Residues count along the entry.
UniProt P0A9K9, residues 1-154: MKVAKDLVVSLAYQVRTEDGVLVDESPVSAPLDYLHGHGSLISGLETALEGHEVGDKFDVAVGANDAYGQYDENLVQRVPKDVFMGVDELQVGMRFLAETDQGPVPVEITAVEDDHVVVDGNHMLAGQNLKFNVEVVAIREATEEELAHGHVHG

Results are given in words; binding and its absence hold for the method and conditions named. Some entries that bind do so weakly or less than the wild type.

The target of the experiment is T1, E. coli MraY(T23P) (E. coli) (UniProt P0A6W3).
T1 sequence: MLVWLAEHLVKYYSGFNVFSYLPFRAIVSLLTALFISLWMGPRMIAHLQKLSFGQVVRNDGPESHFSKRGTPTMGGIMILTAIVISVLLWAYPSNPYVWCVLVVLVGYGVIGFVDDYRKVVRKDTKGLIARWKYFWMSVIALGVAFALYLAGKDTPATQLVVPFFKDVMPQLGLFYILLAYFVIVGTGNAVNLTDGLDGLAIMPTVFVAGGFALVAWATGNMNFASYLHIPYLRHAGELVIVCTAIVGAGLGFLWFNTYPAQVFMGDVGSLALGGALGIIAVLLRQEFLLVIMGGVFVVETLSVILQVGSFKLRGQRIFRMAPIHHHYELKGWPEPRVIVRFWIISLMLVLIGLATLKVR
As to the kind of experiment: cryo-EM structure; YES(T23P) complex (EcMraY(T23P), protein E, SlyD) co-expressed and purified in DDM; 5 mg/ml in 10 mM HEPES pH 7.5, 75 mM NaCl, 2% glycerol, 5 mM βME, 0.03% DDM, 1 mM E. coli total lipid extract; focused refinement of MraY alone after particle subtraction, final map 3.8 Å; both purified.

Take “E. coli chaperone SlyD (SlyD_(1–154)) (from UniProt P0A9K9 1-154) (domain or fragment)”: the binding entry was “binds”.
